For experiment [1], the target named is Cyno TL1A (cyno) (UniProt G7PRK8). Nature of the experiment: SPR, Fab format. (In general: SPR reads the build-up and loss of mass on a sensor chip optically.)
Experiment [2] deals with human TL1A (human) (UniProt O95150). The experiment in a line: SPR, Fab format.

Chains of the proteins cited; added tags and fusions are not shown. Lines headed by an entry give the natural chain unless they say otherwise; changes in a name come on top. A line that says so, or that is headed by a name, gives the form on record, which may keep a tag or linker. Residues count along the entry.
Cyno TL1A (G7PRK8, form named): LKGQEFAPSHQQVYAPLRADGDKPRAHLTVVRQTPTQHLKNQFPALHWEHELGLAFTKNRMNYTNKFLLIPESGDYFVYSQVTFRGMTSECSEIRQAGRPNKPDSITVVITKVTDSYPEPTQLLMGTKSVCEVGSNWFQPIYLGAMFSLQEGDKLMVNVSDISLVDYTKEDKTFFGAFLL
UniProt O95150, residues 72-251: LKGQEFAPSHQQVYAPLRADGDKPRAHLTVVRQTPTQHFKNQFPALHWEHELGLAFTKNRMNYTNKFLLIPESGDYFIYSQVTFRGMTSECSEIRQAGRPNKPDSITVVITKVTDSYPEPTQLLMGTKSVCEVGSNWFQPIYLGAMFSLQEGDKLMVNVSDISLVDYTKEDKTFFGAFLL

Results are given in words; binding and its absence hold for the method and conditions named. Some entries that bind do so weakly or less than the wild type.

B1: Antibody 59 (Fab format) (Fab, V domains shown)
VH: QVQLQESGPGLVRPSQTLSLTCTVSGFDITDTYMHWVRQRPGRGLEWMGRIEPAGGHTKYNPSLKSRVTITRDTSKNQVSLRLSSVTAADTAVYYCVRSGGLPDVWGQGSLVTVSS
VL: DIQMTQSPSSLSASVGDRVTITCRASSSVSYMYWYQQKPGKAPKLLIYGASNLASGVPSRFSGSGSGTDFTFTISSLQPEDIATYYCQQWEGNPRTFGQGTKVEIK
For B1, the binding result in experiment [1] and in experiment [2] was “binds” throughout.

B2: Antibody 69 (Fab format) (Fab, V domains shown)
VH: QVQLQESGPGLVRPSQTLSLTCTVSGFDIQDTYMHWVRQRPGRGLEWMGRIEPAGGHTKYNPSLKSRVTITRDTSKNQVSLRLSSVTAADTAVYYCVRSGGLPDAWGQGSLVTVSS
VL: DIQMTQSPSSLSASVGDRVTITCRASQGIYYMYWYQQKPGKAPKLLIYATSNLASGVPSRFSGSGSGTDFTFTISSLQPEDIATYYCQQWEGNPRTFGQGTKVEIK
For B2, the binding result in experiment [1] and in experiment [2] was “binds” in each case.

B3: Antibody 66 (Fab format) (Fab, V domains shown)
VH: QVQLQESGPGLVRPSQTLSLTCTVSGFDIQDTYMHWVRQRPGRGLEWMGRIEPAGGHTKYNPSLKSRVTITRDTSKNQVSLRLSSVTAADTAVYYCVRSGGLPDAWGQGSLVTVSS
VL: DIQMTQSPSSLSASVGDRVTITCRASQGVEYMYWYQQKPGKAPKLLIYSASNLASGVPSRFSGSGSGTDFTFTISSLQPEDIATYYCQQWEGNPRTFGQGTKVEIK
For the molecule B3, the binding result in experiment [1] and in experiment [2] was “binds” throughout.

B4: Antibody 73 (Fab format) (Fab, V domains shown)
VH: QVQLQESGPGLVRPSQTLSLTCTVSGFDIQDTYMHWVRQRPGRGLEWMGRIEPASGHTKYNPSLKSRVTITRDTSKNQVSLRLSSVTAADTAVYYCAASGGMPDMWGQGSLVTVSS
VL: DIQMTQSPSSLSASVGDRVTITCRASQGVEYMYWYQQKPGKAPKLLIYSASNLASGVPSRFSGSGSGTDFTFTISSLQPEDIATYYCQQWEGNPRTFGQGTKVEIK
As for B4, the binding result in experiment [1] and in experiment [2] was “binds” throughout.

B5: Antibody 81 (Fab format) (Fab, V domains shown)
VH: QVQLQESGPGLVRPSQTLSLTCTVSGFDITDTYMHWVRQRPGRGLEWMGRIEPAGGHTKYNPSLKSRVTITRDTSKNQVSLRLSSVTAADTAVYYCVRSGGLPDVWGQGSLVTVSS
VL: DIQMTQSPSSLSASVGDRVTITCRASQGIYYMYWYQQKPGKAPKLLIYGASNLASGVPSRFSGSGSGTDFTFTISSLQPEDIATYYCQQWEGNPRTFGQGTKVEIK
As to B5, the binding result in experiment [1] and in experiment [2] was “binds” throughout.

B6: Antibody 60 (Fab format) (Fab, V domains shown)
VH: QVQLQESGPGLVRPSQTLSLTCTVSGFDITDTYMHWVRQRPGRGLEWMGRIEPAGGHTKYNPSLKSRVTITRDTSKNQVSLRLSSVTAADTAVYYCVRSGGLPDVWGQGSLVTVSS
VL: DIQMTQSPSSLSASVGDRVTITCRASSSVSYMYWYQQKPGKAPKLLIYATSNLASGVPSRFSGSGSGTDFTFTISSLQPEDIATYYCQQWEGNPRTFGQGTKVEIK
On to B6, for which the binding entry in experiment [1] and in experiment [2] was “binds” each time.

B7: Antibody 79 (Fab format) (Fab, V domains shown)
VH: QVQLQESGPGLVRPSQTLSLTCTVSGFDIEDTYMHWVRQRPGRGLEWMGRIEPASGHTKYNPSLKSRVTITRDTSKNQVSLRLSSVTAADTAVYYCAISGGVPDVWGQGSLVTVSS
VL: DIQMTQSPSSLSASVGDRVTITCRASSSVSYMYWYQQKPGKAPKLLIYGASNLASGVPSRFSGSGSGTDFTFTISSLQPEDIATYYCQQWEGNPRTFGQGTKVEIK
With B7, the binding entry in experiment [1] and in experiment [2] was “binds” in each case.

B8: Antibody 64 (Fab format) (Fab, V domains shown)
VH: QVQLQESGPGLVRPSQTLSLTCTVSGFDIQDTYMHWVRQRPGRGLEWMGRIEPAGGHTKYNPSLKSRVTITRDTSKNQVSLRLSSVTAADTAVYYCVRSGGLPDAWGQGSLVTVSS
VL: DIQMTQSPSSLSASVGDRVTITCRASQGVEYMYWYQQKPGKAPKLLIYYASNLASGVPSRFSGSGSGTDFTFTISSLQPEDIATYYCQQWEGNPRTFGQGTKVEIK
As to B8, the binding result in experiment [1] and in experiment [2] was “binds” each time.

B9: Antibody 61 (Fab format) (Fab, V domains shown)
VH: QVQLQESGPGLVRPSQTLSLTCTVSGFDIQDTYMHWVRQRPGRGLEWMGRIEPASGHTKYNPSLKSRVTITRDTSKNQVSLRLSSVTAADTAVYYCAASGGMPDMWGQGSLVTVSS
VL: DIQMTQSPSSLSASVGDRVTITCRASQGVEYMYWYQQKPGKAPKLLIYGASNLASGVPSRFSGSGSGTDFTFTISSLQPEDIATYYCQQWEGNPRTFGQGTKVEIK
For B9, the binding entry in experiment [1] and in experiment [2] was “binds” throughout.

Values taken from patent US20250109209A1.
